Assay results published in article PMC6167787.
These are yes or no findings as the source states them, for the method shown. In cells and extracts the contact can be indirect. Some entries that bind do so weakly or less than the wild type.

Protein sequences, listed by entry. Tags and fused reporters are not part of them.
UniProt O14503: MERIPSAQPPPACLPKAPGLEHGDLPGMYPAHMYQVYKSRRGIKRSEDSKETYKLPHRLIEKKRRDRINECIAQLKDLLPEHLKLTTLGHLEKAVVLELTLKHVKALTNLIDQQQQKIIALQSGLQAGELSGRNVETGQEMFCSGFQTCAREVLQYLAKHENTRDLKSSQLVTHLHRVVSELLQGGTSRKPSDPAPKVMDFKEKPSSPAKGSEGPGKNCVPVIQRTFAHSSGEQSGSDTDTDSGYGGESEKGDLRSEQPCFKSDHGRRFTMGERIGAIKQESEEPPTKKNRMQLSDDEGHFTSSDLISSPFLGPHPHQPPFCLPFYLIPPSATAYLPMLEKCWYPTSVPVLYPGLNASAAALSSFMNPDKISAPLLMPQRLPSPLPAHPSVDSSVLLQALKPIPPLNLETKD
UniProt Q13547: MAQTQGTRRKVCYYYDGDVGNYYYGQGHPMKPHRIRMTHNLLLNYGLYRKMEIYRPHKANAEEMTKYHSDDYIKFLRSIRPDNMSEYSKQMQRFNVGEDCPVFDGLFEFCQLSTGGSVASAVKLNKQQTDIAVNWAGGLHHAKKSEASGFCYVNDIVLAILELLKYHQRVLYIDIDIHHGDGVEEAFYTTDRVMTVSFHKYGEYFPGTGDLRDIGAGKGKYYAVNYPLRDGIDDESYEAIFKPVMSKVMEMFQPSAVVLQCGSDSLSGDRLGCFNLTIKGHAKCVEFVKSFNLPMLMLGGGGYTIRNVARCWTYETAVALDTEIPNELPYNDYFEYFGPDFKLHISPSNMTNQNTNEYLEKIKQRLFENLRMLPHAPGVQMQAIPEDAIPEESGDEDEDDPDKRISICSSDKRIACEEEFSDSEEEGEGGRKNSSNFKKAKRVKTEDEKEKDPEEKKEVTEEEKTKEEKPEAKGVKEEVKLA
UniProt Q92769: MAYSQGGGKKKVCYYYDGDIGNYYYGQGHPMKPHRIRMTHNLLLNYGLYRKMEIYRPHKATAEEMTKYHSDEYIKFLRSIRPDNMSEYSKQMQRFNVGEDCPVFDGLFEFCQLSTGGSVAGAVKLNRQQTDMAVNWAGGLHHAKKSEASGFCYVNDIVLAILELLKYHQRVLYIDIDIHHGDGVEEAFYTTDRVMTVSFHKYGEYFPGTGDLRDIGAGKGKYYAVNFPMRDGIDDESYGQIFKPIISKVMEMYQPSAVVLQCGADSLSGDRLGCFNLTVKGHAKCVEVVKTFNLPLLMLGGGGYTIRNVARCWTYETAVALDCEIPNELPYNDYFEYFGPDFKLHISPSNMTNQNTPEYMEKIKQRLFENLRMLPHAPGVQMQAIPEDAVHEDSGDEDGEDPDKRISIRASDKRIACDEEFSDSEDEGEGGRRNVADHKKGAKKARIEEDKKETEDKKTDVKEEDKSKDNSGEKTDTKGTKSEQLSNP

Target: Basic helix-loop-helix family member E40 (BHLHE40) (human (endogenous in MDA-MB-231)) (UniProt O14503)
Assay: co-IP; reciprocal co-immunoprecipitation/immunoblotting of endogenous proteins in the soluble cellular fraction (Pierce IP Lysis Buffer with protease inhibitors, TrueBlot kit) of MDA-MB-231 EV cells, control or exposed to 1%O2/LG for 4 h

In the case of “histone deacetylase 1 (HDAC1) (from UniProt Q13547 1-482)”, the binding is reported as “binds”.
In the case of “histone deacetylase 2 (HDAC2) (from UniProt Q92769 1-488)”, the binding is reported as “binds”.
